Earlier results in patent publication US20190008973A1, “INTRALIPID-IODINE FOR IMAGING” (priority 2017, published 2019).
Like-named read-outs stand apart in the source and are kept apart here.

Conditions: cited from earlier work

CCN(CC)CC(=O)Nc1c(C)cccc1C [lidocaine]
mean un-entrapped lidocaine AUC 0 to 30 min (during Ringer infusion): 21.3 mg·min/L
mean un-entrapped lidocaine AUC 0 to 30 min (during lipid infusion): 16.4 mg·min/L
